# From PMC8632885
# Assays:
# [1] = molecular target: T1, AtMP1 (first antimicrobial peptide from Anabas testudineus skin mucus fraction 2), biotinylated (Anabas testudineus); assay: affinity purification with mass spectrometry; biotinylated peptide as bait, streptavidin beads, overnight at 4 °C; lysates (total, membrane, mitochondrial) of MCF7 and MDA-MB-231 in RIPA buffer; the results say that the cells were treated with the biotinylated peptides for 48 h before lysis; bands cut from SDS-PAGE by expected size, LC-MS/MS, Mascot score >= 20; LC-MS data of the samples combined; only the target purified
# T1 sequence (peptide, biotin (NH2-reactive biotin, Biotin Labelling Kit NH2)): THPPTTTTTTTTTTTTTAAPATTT
# [2] = molecular target: T2, AtMP2 (second antimicrobial peptide from Anabas testudineus skin mucus fraction 2), biotinylated (Anabas testudineus); assay: as above
# T2 sequence (peptide, biotin (NH2-reactive biotin, Biotin Labelling Kit NH2)): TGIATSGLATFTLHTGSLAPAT
substance,measurement,setting,value
p53 (from UniProt P04637 1-393),binding,[1],binds
same,binding,[2],binds

# These are yes or no findings as the source states them, for the method shown. Binding seen in cells or lysates may run through a third protein. Here binding means that the protein was enriched with, or labelled near, the bait; the list need not be complete.
